Experimental data reported in paper PMC7642387.
These are yes or no findings as the source states them, for the method shown. Binding seen in cells or lysates may run through a third protein. Some binding calls cover weakened binding; strength is not graded here.

Biological target: T1, Nup50 (human (endogenous in HeLa)) (UniProt Q9UKX7)
T1 sequence: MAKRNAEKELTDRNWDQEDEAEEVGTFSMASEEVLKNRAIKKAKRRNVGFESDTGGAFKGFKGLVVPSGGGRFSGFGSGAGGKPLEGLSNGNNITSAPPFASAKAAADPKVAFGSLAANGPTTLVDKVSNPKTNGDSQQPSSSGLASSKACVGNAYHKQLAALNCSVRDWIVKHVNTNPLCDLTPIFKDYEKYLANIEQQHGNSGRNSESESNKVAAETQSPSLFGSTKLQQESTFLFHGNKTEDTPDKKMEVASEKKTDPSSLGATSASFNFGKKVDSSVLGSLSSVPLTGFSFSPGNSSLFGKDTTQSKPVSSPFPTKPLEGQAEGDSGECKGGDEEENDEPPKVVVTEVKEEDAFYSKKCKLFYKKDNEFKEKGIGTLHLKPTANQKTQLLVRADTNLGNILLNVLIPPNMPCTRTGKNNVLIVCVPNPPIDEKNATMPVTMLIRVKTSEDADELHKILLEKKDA
Assay: co-IP; HeLa lysate (200 µg) with Nup50 or control IgG antibody (3 µg) for 2 h at 4 °C, protein-A/G agarose overnight; blot with Nup50 or Sig-1R (Santa Cruz B5) antibody; both proteins endogenous

binding: binds
Substance: endogenous Sig-1R (sigma-1 receptor) (from UniProt Q99720-1 1-223)
